These results are taken from paper PMC6287014.

The target of one assay is T1, Myc-DREAM(71-256) (UniProt Q9Y2W7).
T1 sequence: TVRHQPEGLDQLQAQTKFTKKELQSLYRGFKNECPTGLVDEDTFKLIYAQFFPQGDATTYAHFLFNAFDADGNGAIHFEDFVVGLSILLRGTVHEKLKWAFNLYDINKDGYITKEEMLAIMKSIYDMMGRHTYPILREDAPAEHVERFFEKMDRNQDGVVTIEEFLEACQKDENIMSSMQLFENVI
The experiment in a line: co-IP; whole cell extracts (200 ug) of cotransfected HEK293T cells; IP with 1 ug rabbit anti-Myc, western blot with anti-Flag; 1 mM CaCl2, up to 2 mM EGTA or DMSO in the reaction did not change the band; repaglinide in the reaction significantly reduced it.

In assay [1] the target is T2, endogenous DREAM (mouse (endogenous in mouse brain and N2a cells)) (UniProt Q9QXT8).
T2 sequence: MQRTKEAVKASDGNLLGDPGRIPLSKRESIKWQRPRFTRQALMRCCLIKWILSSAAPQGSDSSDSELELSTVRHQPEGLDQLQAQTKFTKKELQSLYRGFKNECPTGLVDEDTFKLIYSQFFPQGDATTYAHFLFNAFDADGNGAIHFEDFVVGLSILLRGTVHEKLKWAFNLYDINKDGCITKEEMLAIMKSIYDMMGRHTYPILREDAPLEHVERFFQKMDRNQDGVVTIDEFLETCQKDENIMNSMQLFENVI
The experiment in a line: co-IP; whole cell extracts (200 ug) of mouse hippocampus and cerebral cortex; IP with 5 ug mouse monoclonal anti-DREAM 1B1, western blot with anti-PS2. On the technique in general: Immunoblotting shows a protein as a band on a membrane.

For assay [2], the target named is T2, endogenous DREAM (mouse (endogenous in mouse brain and N2a cells)). The assay is described as follows: co-IP; whole cell extracts (200 ug) of N2a cells; IP with 5 ug mouse monoclonal anti-DREAM 1B1, western blot with anti-PS2.

Results are given in words; binding and its absence hold for the method and conditions named. In cells and extracts the contact can be indirect. Some entries that bind do so weakly or less than the wild type. For part of these data: Where a sequence is shown, tags or fusion partners need not be part of it.

As for “Flag-Ct-PS2(335-448) (from UniProt P49810 335-448) (domain or fragment)”, the binding entry with Myc-DREAM(71-256) is on record as “binds”.

Turning to “full length PS2 holoprotein, endogenous (from UniProt Q61144 1-448)”, the binding result in assay [1] and in assay [2] was “binds” each time.
